Measurements from doi:10.1101/2020.01.30.927038.
Results are given in words; binding and its absence hold for the method and conditions named. Binding seen in cells or lysates may run through a third protein. These calls come from enrichment with a bait or labelling near it, and not all partners need be listed.

Sequences of proteins named here, by UniProt entry; tags and fusion partners are left off. Residues count along the entry.
UniProt Q9Y4K0, residues 26-774: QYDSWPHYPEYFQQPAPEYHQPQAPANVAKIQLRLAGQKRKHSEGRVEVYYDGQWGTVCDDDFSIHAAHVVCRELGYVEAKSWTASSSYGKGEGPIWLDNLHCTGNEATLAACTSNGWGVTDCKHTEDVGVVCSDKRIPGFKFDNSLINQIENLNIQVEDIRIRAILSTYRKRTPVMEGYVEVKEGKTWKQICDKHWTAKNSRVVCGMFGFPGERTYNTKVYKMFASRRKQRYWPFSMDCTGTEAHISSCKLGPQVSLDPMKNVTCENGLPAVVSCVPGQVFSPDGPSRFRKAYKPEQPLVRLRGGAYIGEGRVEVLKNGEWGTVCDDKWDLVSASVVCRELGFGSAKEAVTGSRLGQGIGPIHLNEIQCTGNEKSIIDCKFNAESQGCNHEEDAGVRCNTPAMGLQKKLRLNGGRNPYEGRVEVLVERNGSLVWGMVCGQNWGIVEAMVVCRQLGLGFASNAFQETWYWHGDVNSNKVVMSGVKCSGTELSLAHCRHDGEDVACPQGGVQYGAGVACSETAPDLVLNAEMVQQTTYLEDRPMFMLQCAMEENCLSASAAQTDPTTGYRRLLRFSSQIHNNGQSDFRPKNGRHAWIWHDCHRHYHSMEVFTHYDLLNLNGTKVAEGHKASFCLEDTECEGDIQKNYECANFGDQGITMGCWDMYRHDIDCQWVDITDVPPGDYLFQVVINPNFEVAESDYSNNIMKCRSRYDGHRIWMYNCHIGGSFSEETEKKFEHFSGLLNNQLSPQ
UniProt O96019: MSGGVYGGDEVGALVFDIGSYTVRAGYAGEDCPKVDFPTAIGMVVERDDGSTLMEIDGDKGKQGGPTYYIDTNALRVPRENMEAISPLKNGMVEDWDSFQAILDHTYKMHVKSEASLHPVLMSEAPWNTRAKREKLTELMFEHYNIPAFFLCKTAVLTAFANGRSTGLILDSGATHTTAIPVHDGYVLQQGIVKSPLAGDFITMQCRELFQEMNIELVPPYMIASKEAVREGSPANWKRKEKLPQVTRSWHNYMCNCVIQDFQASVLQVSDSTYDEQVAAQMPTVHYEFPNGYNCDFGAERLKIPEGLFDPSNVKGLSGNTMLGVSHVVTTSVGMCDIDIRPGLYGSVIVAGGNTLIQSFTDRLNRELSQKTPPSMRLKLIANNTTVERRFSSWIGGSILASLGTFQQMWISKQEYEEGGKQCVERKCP
UniProt Q9NPF5: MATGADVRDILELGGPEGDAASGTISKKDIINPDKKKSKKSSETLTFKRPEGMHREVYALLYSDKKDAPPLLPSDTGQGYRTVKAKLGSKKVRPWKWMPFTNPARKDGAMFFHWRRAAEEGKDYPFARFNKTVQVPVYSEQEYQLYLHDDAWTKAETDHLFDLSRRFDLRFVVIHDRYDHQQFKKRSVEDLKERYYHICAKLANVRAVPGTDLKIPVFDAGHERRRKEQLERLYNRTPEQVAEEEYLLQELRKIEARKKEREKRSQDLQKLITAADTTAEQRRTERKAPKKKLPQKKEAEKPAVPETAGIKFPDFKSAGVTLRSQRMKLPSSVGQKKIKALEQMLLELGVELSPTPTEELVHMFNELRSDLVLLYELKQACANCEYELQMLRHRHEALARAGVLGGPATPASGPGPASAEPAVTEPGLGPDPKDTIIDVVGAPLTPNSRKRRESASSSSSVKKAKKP
UniProt Q9Y265: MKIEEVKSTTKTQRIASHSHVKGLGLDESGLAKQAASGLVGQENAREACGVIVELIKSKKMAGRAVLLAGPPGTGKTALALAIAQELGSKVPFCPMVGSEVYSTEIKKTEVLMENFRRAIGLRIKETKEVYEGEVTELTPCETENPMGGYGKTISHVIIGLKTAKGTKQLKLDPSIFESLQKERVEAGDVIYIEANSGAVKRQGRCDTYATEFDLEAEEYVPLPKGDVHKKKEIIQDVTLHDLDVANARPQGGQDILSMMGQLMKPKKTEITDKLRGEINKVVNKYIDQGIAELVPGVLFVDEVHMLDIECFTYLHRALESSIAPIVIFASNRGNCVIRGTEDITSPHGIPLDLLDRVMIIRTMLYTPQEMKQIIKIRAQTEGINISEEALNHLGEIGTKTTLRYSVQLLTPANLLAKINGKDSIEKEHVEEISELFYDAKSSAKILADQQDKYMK

Target: LOXL2 (bait of the previously published tandem-affinity purification) (UniProt Q9Y4K0)
Assay: affinity purification with mass spectrometry

binding, binds:
BAF53 (from UniProt O96019 1-429), DMAP1 (from UniProt Q9NPF5 1-467), RUVBL1 (from UniProt Q9Y265 1-456)
